Out of some 1,800 compounds screened, about 1,400 (78%) were called active. Roughly 2% stayed inconclusive and do not appear here.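 The calls were made as follows: active = fitted curve crossing a set activation limit at or below the highest valid dose tested; inconclusive = flat fit at 30 to 70% activation, or poor fit; inactive = the rest, including signal decreases.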 The set was probably picked from earlier hits. The entries are a selection whose mix differs from that of the whole data set. Results with a measured potency or affinity are listed apart.

A short description of the assay: blockers of NLG process in reporter cells – D54 ERlucT cells, luminescence, cherry-picks, dose response (AID 624491).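 Also: signal gain reflects blocked N-linked glycosylation of a luciferase reporter.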 To be noted: D54 ERlucT glycosylation luciferase reporter, 24 h. Background: Reporter assays use an easily measured gene product as a stand-in for the process of interest.

Turning to `COC(=O)C1=C(c2cc3ccccc3s2)C[C@@H]2CC[C@H]1N2C(=O)N1CCCCC1`, the activation (NLG inhibition) (at 19.5 µM (top of the series)) was inactive: 19.7%.
`CN(C)c1ccc(/C=C/c2cc[n+](C)c3ccccc23)cc1`: the activation (NLG inhibition) is, setting by setting: (at 5 µM (top of the series)) inactive: -37.9%; (at 19.5 µM (top of the series)) inactive: 72.2%.
Regarding `CC(=O)OC1CC[C@]2(C#N)[C@H]3CC[C@]4(C)[C@H](C5C=CC(=O)O5)CCC4(O)C3CCC2(O)C1` (stereo partly specified), the activation (NLG inhibition) (at 19.5 µM (top of the series)) was inactive: -11.3%.
On the same count and under the same terms, for `CN(C)c1ccc(/C=C/C=C/c2sc3ccccc3[n+]2C)cc1` the value was inactive: -8.7%; for `CN1CN(c2ccccc2)C2(CCN(CCCSc3ccccc3NC(=O)/C=C/c3ccccc3)CC2)C1=O`, inactive: 130%; for `CC[n+]1c(/C=C/C=C/c2ccc(N(C)C)cc2)sc2ccccc21`, inactive: -10%.
The same measure, in the same setting: the figure for `CCC1C(c2cc(OC)c(OC)c(OC)c2)c2cc3c(cc2OC1N1CCCC1)OCO3` (stereo unspecified) is inactive: 8.96%; for `CNC(=O)c1cccn(Cc2cccc(C(F)(F)F)c2)c1=O` it is inactive: 125%; for `CC(C)N1C(=O)/C(=C/C=C/c2ccco2)C(=O)N(Cc2ccco2)C1=O` it is inactive: 21.9%.
Regarding `CCC(C)OC(=O)c1c(N)n(Cc2cccs2)c2nc3ccccc3nc12` (stereo unspecified), under “at 19.5 µM (top of the series)”, the activation (NLG inhibition) was inactive: 0.113%.
On the same count and under the same terms, the figure for `Cc1cccn2c(=O)c3cc(C(=O)N4CCC5(CC4)OCCO5)n(C)c3nc12` is inactive: 17.5%.
Same read-out and setting: the figure for `Nc1c(C(=O)OCC2CCCO2)c2nc3ccccc3nc2n1Cc1cccs1` (stereo unspecified) is inactive: 40.8%.
On the same count and under the same terms, for `COC12CCC3(CC1C(C)(O)C(C)(C)C)[C@H]1Cc4ccc(O)c5c4[C@@]3(CCN1CC1CC1)C2O5` (stereo partly specified) the value was inactive: -28.6%; for `COc1cc2c(c(OC)c1OC)-c1ccc(O)cc1[C@@H](NC(C)=O)CC2`, inactive: 49%.
As to `O=C1Nc2ccccc2/C1=C/c1cnc[nH]1`, the activation (NLG inhibition) (at 19.5 µM (top of the series)) is inactive: 7.56%.

Values taken from PubChem BioAssay AID624491 (Broad Institute, 2012).
